Laboratory results taken from publication doi:10.1101/2021.12.08.471779.
Changes are numbered by the printed parent chain. These are yes or no findings as the source states them, for the method shown. In cells and extracts the contact can be indirect. Some binding calls cover weakened binding; strength is not graded here.

The chains behind the UniProt entries cited, without tags or fusion partners. Where a name states a change or a piece, a line headed by the entry shows the natural chain unless it says otherwise.
UniProt P02929, whole entry, looked up, stated change not applied: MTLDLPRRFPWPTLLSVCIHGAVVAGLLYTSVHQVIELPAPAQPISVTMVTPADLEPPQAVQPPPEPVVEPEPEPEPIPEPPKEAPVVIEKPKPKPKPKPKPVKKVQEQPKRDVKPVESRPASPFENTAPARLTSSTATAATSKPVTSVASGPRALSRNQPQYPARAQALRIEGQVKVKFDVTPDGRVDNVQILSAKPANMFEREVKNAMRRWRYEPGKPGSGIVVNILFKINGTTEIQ

Key:
Assay in all cases: cross-linking
[1] = target: T1, FepA G54C (Escherichia coli K-12) (UniProt P05825)
T1 sequence: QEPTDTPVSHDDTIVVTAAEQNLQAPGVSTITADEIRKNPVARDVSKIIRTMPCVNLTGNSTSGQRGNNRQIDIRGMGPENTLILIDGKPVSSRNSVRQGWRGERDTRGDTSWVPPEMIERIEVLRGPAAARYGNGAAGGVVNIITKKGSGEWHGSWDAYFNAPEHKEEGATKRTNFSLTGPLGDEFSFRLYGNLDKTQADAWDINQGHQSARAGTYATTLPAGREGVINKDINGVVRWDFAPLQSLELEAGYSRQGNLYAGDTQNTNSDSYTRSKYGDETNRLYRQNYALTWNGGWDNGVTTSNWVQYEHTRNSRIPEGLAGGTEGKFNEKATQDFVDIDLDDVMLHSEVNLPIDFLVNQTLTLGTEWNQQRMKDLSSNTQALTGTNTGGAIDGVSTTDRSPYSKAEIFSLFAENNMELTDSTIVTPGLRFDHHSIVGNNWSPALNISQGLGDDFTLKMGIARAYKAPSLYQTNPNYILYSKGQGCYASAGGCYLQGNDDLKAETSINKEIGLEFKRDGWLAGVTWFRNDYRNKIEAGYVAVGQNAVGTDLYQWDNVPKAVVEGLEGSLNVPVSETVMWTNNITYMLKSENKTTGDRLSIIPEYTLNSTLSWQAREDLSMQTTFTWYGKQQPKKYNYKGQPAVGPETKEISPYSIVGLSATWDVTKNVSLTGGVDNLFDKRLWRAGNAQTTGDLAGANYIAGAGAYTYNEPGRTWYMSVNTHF

[2] = target: T2, FepA E511C (Escherichia coli K-12) (UniProt P05825)
T2 sequence: T1 sequence with C54G, E511C

[3] = target: T3, FepA V142C (Escherichia coli K-12) (UniProt P05825)
T3 sequence: T1 sequence with C54G, V142C

Substance	binding [1]	binding [2]	binding [3]
TonB C18G A209C (from UniProt P02929 1-239)	no binding	no binding	no binding
TonB C18G R214C (from UniProt P02929 1-239)	no binding	no binding	no binding
TonB C18G R204C (from UniProt P02929 1-239)	no binding	no binding	no binding
TonB C18G R212C (from UniProt P02929 1-239)	no binding	no binding	no binding
TonB C18G M201C (from UniProt P02929 1-239)	no binding	no binding	no binding
TonB C18G N208C (from UniProt P02929 1-239)	no binding	no binding	no binding
TonB C18G Q160C (from UniProt P02929 1-239)	binds weakly	no binding	no binding
TonB C18G V206C (from UniProt P02929 1-239)	no binding	no binding	no binding
